Holding throughout (conditions): yeast three-hybrid, YBZ-1, SC-Leu-His + 0.5 mM 3-AT, 4 days
Assay [1] addresses T1, PUM1 PUF domain R5-ATR C1007A + R1008T + Q1011R (Homo sapiens) (UniProt Q14671).
T1 sequence: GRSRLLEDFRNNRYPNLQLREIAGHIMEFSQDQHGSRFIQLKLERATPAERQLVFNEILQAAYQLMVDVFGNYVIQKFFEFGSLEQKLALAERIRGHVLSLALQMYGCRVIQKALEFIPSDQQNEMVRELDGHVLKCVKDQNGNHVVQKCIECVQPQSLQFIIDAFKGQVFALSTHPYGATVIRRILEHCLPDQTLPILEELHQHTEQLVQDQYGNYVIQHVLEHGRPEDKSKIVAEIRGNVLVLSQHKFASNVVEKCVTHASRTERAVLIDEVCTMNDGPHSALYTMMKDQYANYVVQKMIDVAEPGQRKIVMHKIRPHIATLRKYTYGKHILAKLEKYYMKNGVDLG

For assay [2], the target named is T2, PUM1 PUF domain R5-FHG C1007F + R1008H + Q1011G (Homo sapiens) (UniProt Q14671).
T2 sequence: T1 sequence with A180F, T181H, R184G

The target of assay [3] is T3, PUM1 PUF domain R5-FQR C1007F + R1008Q + Q1011R (Homo sapiens) (UniProt Q14671).
T3 sequence: T1 sequence with A180F, T181Q

Assay [4] has as its target T4, PUM1 PUF domain R5-GQW C1007G + R1008Q + Q1011W (Homo sapiens) (UniProt Q14671).
T4 sequence: T1 sequence with A180G, T181Q, R184W

The target of assay [5] is T5, PUM1 PUF domain R5-HFF C1007H + R1008F + Q1011F (Homo sapiens) (UniProt Q14671).
T5 sequence: T1 sequence with A180H, T181F, R184F

Assay [6] concerns the target T6, PUM1 PUF domain R5-QQR C1007Q + R1008Q + Q1011R (Homo sapiens) (UniProt Q14671).
T6 sequence: T1 sequence with A180Q, T181Q

Assay [7] has as its target T7, PUM1 PUF domain R5-RAK C1007R + R1008A + Q1011K (Homo sapiens) (UniProt Q14671).
T7 sequence: T1 sequence with A180R, T181A, R184K

For assay [8], the target named is T8, PUM1 PUF domain R5-RAS C1007R + R1008A + Q1011S (Homo sapiens) (UniProt Q14671).
T8 sequence: T1 sequence with A180R, T181A, R184S

Assay [9] deals with T9, PUM1 PUF domain R5-RGC C1007R + R1008G + Q1011C (Homo sapiens) (UniProt Q14671).
T9 sequence: T1 sequence with A180R, T181G, R184C

The target of assay [10] is T10, PUM1 PUF domain R5-RGP C1007R + R1008G + Q1011P (Homo sapiens) (UniProt Q14671).
T10 sequence: T1 sequence with A180R, T181G, R184P

For assay [11], the target named is T11, PUM1 PUF domain R5-RGT C1007R + R1008G + Q1011T (Homo sapiens) (UniProt Q14671).
T11 sequence: T1 sequence with A180R, T181G, R184T

Assay [12] deals with T12, PUM1 PUF domain R5-RKT C1007R + R1008K + Q1011T (Homo sapiens) (UniProt Q14671).
T12 sequence: T1 sequence with A180R, T181K, R184T

For assay [13], the target named is T13, PUM1 PUF domain R5-RNW C1007R + R1008N + Q1011W (Homo sapiens) (UniProt Q14671).
T13 sequence: T1 sequence with A180R, T181N, R184W

Assay [14] addresses T14, PUM1 PUF domain R5-RQA C1007R + R1008Q + Q1011A (Homo sapiens) (UniProt Q14671).
T14 sequence: T1 sequence with A180R, T181Q, R184A

Assay [15] addresses T15, PUM1 PUF domain R5-RQL C1007R + R1008Q + Q1011L (Homo sapiens) (UniProt Q14671).
T15 sequence: T1 sequence with A180R, T181Q, R184L

The target of assay [16] is T16, PUM1 PUF domain R5-RSG C1007R + R1008S + Q1011G (Homo sapiens) (UniProt Q14671).
T16 sequence: T1 sequence with A180R, T181S, R184G

Assay [17] addresses T17, PUM1 PUF domain R5-RTR C1007R + R1008T + Q1011R (Homo sapiens) (UniProt Q14671).
T17 sequence: T1 sequence with A180R

Assay [18] concerns the target T18, PUM1 PUF domain R5-SLH C1007S + R1008L + Q1011H (Homo sapiens) (UniProt Q14671).
T18 sequence: T1 sequence with A180S, T181L, R184H

The target of assay [19] is T19, PUM1 PUF domain R5-SMS C1007S + R1008M + Q1011S (Homo sapiens) (UniProt Q14671).
T19 sequence: T1 sequence with A180S, T181M, R184S

The target in assay [20] is T20, PUM1 PUF domain R5-TAR C1007T + R1008A + Q1011R (Homo sapiens) (UniProt Q14671).
T20 sequence: T1 sequence with A180T, T181A

Residue numbers refer to the chain shown, from its start. This is one part of the list.

Regarding “GGCUAGAACUAGUGGAUCCCCCGGCGCCCGGCGGCUCGAGCCCGGGUAAGUGUAAAUAGUCUGCAUGCCGCCGGGCGCCAUGCCUGCAGGUCGACUCUAGAAAACAUG”, the binding signal (log2 enrichment (interaction score)) is -1.04 in assay [1]; -1.04 in assay [2]; -1.02 in assay [3]; -1.05 in [4]; -0.99 in assay [5]; -1.11 in assay [6]. Moreover, the binding signal (log2 enrichment (interaction score)) in assay [7] is -0.95; in [8], -1.11; in assay [9], -0.85; in [10] it was -1.1; in assay [11], -1.13; in [12], -1.12. Also, the binding signal (log2 enrichment (interaction score)) in [13] was -0.91; in [14], -0.93; in assay [15] it was -1.05; in [16], -1.03; in assay [17], -1.05; in assay [18], -1.08. Also, the values for the binding signal (log2 enrichment (interaction score)) in assay [19] and in assay [20] were -1.07 and -0.98, respectively.

The values above are taken from paper PMC8384837.
